Earlier results as cited in patent US20200003760A1, “IN-VITRO METHODS FOR CLASSIFYING DRUGS ACCORDING TO THEIR POTENTIAL TO CAUSE LIVER CELL INJURY” (Board of Trustees of Michigan State University, priority 2018, published 2020).

How the values were obtained:
[1] = maximal plasma concentration after pharmacologic dosing in human patients; cited from earlier work
[2] = criteria of Xu et al. (2008); cited from earlier work

COc1ccc2cc([C@H](C)C(=O)O)ccc2c1 [Naproxen]
Cmax [1]: 300 µM | IDILI liability [2]: IDILI+
